Among the data in publication PMC12393484 are binding values, retold here.

Chains of the proteins cited; added tags and fusions are not shown.
UniProt P35713: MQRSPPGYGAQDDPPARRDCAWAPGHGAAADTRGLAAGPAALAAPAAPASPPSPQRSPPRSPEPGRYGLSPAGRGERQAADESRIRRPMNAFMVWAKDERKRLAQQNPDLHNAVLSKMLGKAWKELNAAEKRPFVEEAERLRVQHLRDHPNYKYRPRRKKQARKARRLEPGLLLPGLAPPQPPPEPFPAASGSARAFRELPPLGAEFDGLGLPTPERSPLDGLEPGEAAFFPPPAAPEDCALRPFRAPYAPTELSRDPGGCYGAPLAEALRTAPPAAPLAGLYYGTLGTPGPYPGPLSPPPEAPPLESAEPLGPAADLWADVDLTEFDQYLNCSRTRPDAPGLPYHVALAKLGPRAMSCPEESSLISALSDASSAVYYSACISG
UniProt O14497: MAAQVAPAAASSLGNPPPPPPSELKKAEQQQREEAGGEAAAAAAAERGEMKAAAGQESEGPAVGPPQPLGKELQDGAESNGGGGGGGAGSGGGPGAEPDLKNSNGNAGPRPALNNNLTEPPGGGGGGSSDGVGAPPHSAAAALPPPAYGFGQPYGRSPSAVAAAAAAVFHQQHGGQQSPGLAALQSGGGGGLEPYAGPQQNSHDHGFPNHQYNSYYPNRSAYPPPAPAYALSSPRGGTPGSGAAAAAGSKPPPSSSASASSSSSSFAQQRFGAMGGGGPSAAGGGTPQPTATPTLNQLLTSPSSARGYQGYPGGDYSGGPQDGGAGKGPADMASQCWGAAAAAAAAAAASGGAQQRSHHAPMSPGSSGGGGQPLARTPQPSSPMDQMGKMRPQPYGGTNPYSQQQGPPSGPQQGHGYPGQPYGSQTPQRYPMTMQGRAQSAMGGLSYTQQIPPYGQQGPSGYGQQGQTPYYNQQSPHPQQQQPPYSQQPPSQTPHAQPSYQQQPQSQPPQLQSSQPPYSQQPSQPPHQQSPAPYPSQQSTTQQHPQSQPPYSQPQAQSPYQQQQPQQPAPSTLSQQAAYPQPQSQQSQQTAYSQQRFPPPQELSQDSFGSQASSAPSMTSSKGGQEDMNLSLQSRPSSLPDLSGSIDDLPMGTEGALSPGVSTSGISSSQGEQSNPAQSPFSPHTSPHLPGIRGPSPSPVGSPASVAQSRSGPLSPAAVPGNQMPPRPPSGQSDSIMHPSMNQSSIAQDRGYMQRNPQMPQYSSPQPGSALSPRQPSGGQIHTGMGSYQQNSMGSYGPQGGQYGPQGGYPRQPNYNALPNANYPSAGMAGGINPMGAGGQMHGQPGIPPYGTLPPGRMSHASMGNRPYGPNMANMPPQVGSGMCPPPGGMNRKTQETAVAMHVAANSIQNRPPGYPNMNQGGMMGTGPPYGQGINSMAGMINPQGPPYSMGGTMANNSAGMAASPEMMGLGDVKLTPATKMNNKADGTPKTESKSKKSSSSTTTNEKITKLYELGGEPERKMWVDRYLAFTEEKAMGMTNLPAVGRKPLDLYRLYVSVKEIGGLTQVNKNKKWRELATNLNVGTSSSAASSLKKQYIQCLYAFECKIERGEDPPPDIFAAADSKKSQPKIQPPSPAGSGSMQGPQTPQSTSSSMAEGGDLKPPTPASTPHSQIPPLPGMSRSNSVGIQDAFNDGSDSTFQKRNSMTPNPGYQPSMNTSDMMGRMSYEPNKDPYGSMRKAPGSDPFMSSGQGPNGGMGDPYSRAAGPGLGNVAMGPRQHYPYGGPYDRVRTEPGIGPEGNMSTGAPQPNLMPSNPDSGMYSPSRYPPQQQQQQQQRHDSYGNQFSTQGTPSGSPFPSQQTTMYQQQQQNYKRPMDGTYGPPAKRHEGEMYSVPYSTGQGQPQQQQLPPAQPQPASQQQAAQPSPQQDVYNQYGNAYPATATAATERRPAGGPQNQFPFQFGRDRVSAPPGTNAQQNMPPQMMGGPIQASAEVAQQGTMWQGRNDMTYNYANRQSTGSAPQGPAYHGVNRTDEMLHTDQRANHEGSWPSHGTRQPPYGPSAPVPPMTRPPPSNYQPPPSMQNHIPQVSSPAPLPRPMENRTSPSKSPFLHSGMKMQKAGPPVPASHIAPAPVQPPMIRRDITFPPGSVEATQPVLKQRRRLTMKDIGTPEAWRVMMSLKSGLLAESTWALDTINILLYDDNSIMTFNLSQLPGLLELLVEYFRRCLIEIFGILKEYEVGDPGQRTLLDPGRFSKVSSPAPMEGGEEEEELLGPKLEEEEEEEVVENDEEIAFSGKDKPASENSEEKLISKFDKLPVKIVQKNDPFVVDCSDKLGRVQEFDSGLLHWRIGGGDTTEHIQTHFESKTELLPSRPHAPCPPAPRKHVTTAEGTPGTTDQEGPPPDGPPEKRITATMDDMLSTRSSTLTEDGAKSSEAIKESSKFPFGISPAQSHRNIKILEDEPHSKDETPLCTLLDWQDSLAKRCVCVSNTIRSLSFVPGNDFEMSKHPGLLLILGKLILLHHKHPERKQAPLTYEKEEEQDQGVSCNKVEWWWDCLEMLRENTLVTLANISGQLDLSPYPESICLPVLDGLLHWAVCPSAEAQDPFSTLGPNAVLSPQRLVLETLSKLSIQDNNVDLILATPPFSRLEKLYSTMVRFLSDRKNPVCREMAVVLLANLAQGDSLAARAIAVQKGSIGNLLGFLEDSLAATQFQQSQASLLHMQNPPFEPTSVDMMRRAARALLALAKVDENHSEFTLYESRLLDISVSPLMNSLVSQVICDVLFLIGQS
UniProt P51532: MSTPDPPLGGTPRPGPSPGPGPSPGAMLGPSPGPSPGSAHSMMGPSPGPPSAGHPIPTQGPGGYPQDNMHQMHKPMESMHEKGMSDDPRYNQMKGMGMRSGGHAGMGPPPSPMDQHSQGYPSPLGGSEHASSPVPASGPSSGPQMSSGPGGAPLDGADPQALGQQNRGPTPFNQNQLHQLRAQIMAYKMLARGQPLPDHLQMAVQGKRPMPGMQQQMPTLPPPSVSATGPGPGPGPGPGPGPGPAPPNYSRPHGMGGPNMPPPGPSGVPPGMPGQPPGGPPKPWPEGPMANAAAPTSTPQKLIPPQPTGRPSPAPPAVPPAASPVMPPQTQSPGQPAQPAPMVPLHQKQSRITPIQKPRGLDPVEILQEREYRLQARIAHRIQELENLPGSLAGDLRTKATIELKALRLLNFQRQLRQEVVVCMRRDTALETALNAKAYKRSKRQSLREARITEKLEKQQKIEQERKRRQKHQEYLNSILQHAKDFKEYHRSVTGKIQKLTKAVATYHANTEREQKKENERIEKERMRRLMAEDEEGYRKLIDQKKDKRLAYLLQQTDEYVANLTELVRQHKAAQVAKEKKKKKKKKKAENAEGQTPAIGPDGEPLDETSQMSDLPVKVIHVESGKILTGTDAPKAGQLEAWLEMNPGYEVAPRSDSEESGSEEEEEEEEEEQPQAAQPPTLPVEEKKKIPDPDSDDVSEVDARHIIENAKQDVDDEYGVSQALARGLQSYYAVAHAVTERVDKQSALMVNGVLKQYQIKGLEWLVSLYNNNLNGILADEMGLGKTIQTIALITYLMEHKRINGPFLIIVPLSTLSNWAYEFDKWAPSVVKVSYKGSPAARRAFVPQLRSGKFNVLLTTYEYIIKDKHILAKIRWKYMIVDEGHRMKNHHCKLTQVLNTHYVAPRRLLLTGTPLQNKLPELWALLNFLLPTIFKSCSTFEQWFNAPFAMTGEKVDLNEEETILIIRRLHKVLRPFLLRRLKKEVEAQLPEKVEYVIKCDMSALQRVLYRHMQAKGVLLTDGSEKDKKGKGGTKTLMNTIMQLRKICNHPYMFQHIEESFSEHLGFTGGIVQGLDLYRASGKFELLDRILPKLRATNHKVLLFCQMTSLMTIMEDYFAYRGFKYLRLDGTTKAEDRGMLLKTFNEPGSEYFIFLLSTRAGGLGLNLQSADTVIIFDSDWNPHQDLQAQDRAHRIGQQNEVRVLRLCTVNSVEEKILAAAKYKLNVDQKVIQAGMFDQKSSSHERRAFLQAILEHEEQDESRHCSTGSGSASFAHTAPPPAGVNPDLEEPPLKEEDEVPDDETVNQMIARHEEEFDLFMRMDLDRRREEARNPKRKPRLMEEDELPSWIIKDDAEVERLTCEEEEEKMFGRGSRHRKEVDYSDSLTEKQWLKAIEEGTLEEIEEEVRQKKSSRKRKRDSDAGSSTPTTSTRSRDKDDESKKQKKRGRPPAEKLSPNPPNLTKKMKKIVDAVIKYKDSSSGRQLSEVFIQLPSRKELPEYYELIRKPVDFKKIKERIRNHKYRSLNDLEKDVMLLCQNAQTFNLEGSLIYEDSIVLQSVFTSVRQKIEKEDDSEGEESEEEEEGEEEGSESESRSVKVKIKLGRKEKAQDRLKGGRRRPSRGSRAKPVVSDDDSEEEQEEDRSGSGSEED
UniProt Q9QR71: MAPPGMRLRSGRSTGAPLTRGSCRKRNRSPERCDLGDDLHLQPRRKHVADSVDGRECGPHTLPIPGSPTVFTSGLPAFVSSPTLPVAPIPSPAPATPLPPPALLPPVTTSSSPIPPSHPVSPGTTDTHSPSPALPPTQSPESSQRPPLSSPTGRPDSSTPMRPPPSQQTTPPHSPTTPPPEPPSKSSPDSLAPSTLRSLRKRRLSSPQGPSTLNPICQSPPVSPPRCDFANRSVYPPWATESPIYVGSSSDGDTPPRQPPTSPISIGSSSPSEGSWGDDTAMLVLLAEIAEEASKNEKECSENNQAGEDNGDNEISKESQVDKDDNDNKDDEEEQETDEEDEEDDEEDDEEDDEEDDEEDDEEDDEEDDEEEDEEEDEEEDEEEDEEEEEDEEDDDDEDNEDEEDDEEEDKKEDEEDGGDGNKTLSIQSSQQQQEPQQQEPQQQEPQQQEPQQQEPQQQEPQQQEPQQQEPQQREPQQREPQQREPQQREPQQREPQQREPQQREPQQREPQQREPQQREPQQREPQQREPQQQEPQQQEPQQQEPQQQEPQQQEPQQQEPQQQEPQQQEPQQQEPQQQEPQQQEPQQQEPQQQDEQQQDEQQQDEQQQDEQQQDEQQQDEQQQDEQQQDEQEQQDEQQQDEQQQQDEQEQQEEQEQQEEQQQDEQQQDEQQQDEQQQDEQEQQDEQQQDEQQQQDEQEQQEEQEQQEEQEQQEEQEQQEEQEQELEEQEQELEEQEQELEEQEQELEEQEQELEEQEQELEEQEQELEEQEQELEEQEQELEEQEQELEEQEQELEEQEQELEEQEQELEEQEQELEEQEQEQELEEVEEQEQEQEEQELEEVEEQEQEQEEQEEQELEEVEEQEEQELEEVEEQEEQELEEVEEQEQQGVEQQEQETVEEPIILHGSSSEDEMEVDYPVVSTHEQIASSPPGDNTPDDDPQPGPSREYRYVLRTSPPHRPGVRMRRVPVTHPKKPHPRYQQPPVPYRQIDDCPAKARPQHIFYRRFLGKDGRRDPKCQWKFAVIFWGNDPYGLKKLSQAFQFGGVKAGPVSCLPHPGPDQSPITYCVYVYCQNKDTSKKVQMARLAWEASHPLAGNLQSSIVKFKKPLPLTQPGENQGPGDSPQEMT

These are yes or no findings as the source states them, for the method shown. For some assays here: Binding seen in cells or lysates may run through a third protein. Some binding calls cover weakened binding; strength is not graded here.

For test [1], the target named is SOX18 (endogenous) (human (endogenous in primary human dermal LECs)) (UniProt P35713). The experiment in a line: proximity ligation.
For another test, the target named is Halo-tagged SOX18 (UniProt P35713). Put plainly: Number and Brightness (N&B) fluorescence fluctuation analysis; live HeLa cell nuclei with HaloJF549-SOX18, 37 °C; treated with DMSO, Trichostatin A or Actinomycin D; brightness calibrated on monomeric HaloJF549-Sox7.
Test [2] concerns the target ARID1A, core subunit of the SWI/SNF complex (human (endogenous in iSLK.219/SLK cells and primary human LECs)) (UniProt O14497). Put plainly: proximity ligation.
Test [3] concerns the target BRG1, ATPase subunit of the SWI/SNF chromatin-remodeling complex (human (endogenous in iSLK.219/SLK cells and primary human LECs)) (UniProt P51532). The experiment in a line: proximity ligation.
The target in test [4] is KSHV Latency-Associated Nuclear Antigen (LANA) (KSHV/HHV-8 (rKSHV.219)) (UniProt Q9QR71). Put plainly: proximity ligation.

“BRG1, ATPase subunit of the SWI/SNF chromatin-remodeling complex (from UniProt P51532 1-1647)”: the binding result in test [1] is reported as “binds”.

Turning to “Halo-tagged SOX18 (from UniProt P35713 1-384)”, the binding result with Halo-tagged SOX18 is “binds”.

As for “KSHV Latency-Associated Nuclear Antigen (LANA) (from UniProt Q9QR71 1-1129)”, the binding result in test [2] and in test [3] was “binds” in each case.

Regarding “SOX18 (endogenous) (from UniProt P35713 1-384)”, the binding result in test [4] is “binds”.
